Values quoted from earlier work, collected in patent US7893096B2, “Use of small molecule compounds for immunopotentiation” (Novartis Vaccines and Diagnostics, Inc., priority 2003, dated 2011).
At least one structure is not confirmed: it was looked up by name or label, or the drawing left a doubt.

Test system: TNF-a
Details: see Pope et al., Cellular Immunology 162: 333-339 (1995)

## C=CCn1c(=O)n([C@@H]2O[C@H](CO)[C@@H](O)[C@H]2O)c2nc(N)[nH]c(=O)c21 [Loxoribine, 7-Allyl-8—Oxoguanosine]
  concentration causing useful production of TNF-a: 300 µM
